In PubChem BioAssay (NCATS):
“And” between values parts separate entries of the source, which are not always exact repeats. Identical values can stand only once. Inconclusive means that the source gave no clear call. Such entries were picked first, then a sample of the others. For some of these results: Potencies of inconclusive entries are doubtful fits and often do not repeat. The source made the active and inactive calls. Unless noted, the call rests on the fitted dose curve; in most records, active means well fitted curve in the direction sought with a large enough effect; inconclusive means small, poorly fitted or top-dose-only effect, or another doubt; inactive means no such curve, though single readings can be large; an effect the other way counts as inactive or inconclusive.

Sequences of proteins named here, by UniProt entry; tags and fusion partners are left off. A change or cut given only in a name is not applied to a line headed by its entry.
UniProt Q07343: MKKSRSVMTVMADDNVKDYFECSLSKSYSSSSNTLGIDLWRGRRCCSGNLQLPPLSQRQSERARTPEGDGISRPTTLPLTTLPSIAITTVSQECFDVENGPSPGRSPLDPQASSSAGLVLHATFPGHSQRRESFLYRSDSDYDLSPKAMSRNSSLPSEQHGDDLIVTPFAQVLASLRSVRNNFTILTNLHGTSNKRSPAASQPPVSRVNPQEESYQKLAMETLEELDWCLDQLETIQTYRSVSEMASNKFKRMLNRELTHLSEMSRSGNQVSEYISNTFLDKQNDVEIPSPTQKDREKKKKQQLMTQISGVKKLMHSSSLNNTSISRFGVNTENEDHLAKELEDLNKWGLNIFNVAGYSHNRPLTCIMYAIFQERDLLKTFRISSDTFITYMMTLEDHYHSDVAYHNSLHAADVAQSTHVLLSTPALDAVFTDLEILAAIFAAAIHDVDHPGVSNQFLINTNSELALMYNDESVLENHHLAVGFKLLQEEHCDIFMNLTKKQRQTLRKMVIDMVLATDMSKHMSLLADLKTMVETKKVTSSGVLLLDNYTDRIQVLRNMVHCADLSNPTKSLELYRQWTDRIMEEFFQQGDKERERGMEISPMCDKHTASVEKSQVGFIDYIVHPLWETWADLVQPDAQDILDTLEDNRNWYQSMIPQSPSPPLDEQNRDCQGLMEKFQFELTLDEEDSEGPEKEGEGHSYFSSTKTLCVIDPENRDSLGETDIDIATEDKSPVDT
UniProt P11712, whole entry, looked up: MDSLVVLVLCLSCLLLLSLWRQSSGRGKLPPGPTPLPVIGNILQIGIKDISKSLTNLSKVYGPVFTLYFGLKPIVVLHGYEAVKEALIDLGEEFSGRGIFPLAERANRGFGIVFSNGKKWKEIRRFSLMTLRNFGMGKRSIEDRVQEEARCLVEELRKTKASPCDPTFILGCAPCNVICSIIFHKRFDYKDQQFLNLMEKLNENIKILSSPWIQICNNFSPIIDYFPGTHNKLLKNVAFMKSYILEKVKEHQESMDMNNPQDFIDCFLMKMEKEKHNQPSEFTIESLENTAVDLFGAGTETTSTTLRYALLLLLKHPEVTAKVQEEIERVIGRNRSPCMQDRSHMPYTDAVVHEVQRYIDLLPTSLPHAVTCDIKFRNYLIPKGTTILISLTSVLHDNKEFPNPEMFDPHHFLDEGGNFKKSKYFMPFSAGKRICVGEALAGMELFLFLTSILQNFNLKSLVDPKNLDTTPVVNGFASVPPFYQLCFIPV
UniProt P08684, whole entry, looked up: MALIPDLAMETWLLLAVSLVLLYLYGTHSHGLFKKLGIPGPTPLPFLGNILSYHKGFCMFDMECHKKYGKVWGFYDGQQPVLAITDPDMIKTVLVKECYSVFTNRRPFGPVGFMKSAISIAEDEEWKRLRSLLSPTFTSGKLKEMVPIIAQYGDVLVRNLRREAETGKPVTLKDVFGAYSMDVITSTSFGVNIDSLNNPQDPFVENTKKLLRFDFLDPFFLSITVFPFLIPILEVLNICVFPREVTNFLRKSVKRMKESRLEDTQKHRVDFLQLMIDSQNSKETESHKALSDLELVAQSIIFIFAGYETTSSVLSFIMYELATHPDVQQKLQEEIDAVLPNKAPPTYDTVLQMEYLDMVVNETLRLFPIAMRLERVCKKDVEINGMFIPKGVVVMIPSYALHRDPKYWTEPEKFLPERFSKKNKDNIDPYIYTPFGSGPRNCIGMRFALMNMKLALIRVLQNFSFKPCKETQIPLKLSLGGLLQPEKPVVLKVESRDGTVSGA

Tested on: not listed separately
Assay: Stat Signaling Pathway (AID 446; active means well fitted curve in either direction with a large enough effect, not every such curve was filed as active; inconclusive means small, poorly fitted or top-dose-only effect, or another doubt;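 further: ME-180 cervical cancer cells given 40 pM IL-6 alongside compound; SIE-controlled beta-lactamase reporter measured as 460/530 nm FRET emission ratio; on the % scale 0 is the no-effect control and ±100 the full control effect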)
Conditions: ME-180 SIE beta-lactamase reporter, IL-6 stimulated, 5 h; at 7.69 µM (top of the series) unless noted
Procedure, shortened: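 ME-180 SIE-bla cells; overnight plating; cpd + IL-6 40 pM, 5 h, 37 C; LiveBLAzer 2.5 h RT; 460/530 nm emission ratio. Normalized to 300 pM IL-6 and 125 nM JAK inhibitor controls.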
For `Cc1[nH]c2c(C)ccc(C)c2c1CC(=O)O`, the activity, negative = inhibition was inactive: 9.85%. With `Oc1ccccc1CNCc1ccccc1O` the activity, negative = inhibition was inactive: -8.46%. In the case of `N#CCCn1c(=O)c(-c2cccs2)nc2cnc(OCc3ccccc3)nc21`, the activity, negative = inhibition is reported as inconclusive: 65.6% [activator]. For `NCCSc1nc2ccccc2s1`, the activity, negative = inhibition was inconclusive: -71.2% [inhibitor].

Molecular target: 3',5'-cyclic-AMP phosphodiesterase 4B (Homo sapiens) (UniProt Q07343)
Assay: qHTS Assay for Inhibitors of PDE-IV (AID 607; active means well fitted activation curve with a large enough effect in the main read-out, with a control signal flat, not every such curve was filed as active; inconclusive means small, poorly fitted or top-dose-only effect, or effect the other way, or a change in a side signal; further: potency means the concentration at half of the fitted maximal effect; on activation (PDE inhibition): % of control where 0% means no effect)
Conditions: HEK293 ACTOne CNG channel cells, membrane potential fluorescence; activation (PDE inhibition): at 22.9 µM (top of the series)
Procedure, shortened: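 ACTOne HEK293 cells carry a modified cAMP-gated CNG channel and express endogenous PDE4; plated 1000 cells/well, compounds up to 22.9 uM final. Membrane-potential dye fluorescence (ex 535/em 590) was read; parental cells received 10 uM forskolin + 100 uM RO 20-1724.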
In the case of `COCCn1c(=O)c(CCc2ccccc2)nc2cnc(Nc3ccccc3)nc21`, the Potency is reported as inconclusive: 6.31 µM [activator, partial curve]. For `O=c1c(-c2ccc(Cl)cc2)nc2cnc(Nc3ccccc3)nc2n1C[C@H]1CCCO1`, the Potency was inconclusive: 3.16 µM [activator, single point]. With `CN(C)c1ncc2nc(-c3ccccc3)c(=O)n(-c3ccccc3)c2n1` the Potency was inconclusive: 10 µM [activator, partial curve]. With `O=S(=O)(NCCNC/C=C\c1ccc(Br)cc1)c1cccc2cnccc12` the Potency was inconclusive: 10 µM [activator, partial curve]. With `O=c1c(-c2cc(F)cc(F)c2)nc2cnc(N3CCOCC3)nc2n1C1CC1` the Potency was inconclusive: 1.58 µM [activator, single point]. In the case of `Oc1cccnc1CN1CCCCC1`, the “activation (PDE inhibition)” value is reported as inactive: 9.07%. In the case of `Cn1cc(-c2nc3cnc(N4CCNCC4)nc3n(CCC#N)c2=O)c2ccccc21`, the “activation (PDE inhibition)” value is reported as inactive: -4.34%. In the case of `Cn1c(=O)c(-c2cccs2)nc2cnc(N3CCOCC3)nc21`, the “activation (PDE inhibition)” value is reported as inactive: -8.17%. In the case of `COc1ccccc1CCn1c(=O)c(-c2cccc(F)c2)nc2cncnc21`, the Potency is reported as inconclusive: 3.98 µM [activator, partial curve]. With `CNC(=O)[C@@H]1O[C@@H](n2cnc3c(N)ncnc32)[C@@H](O)[C@H]1O` the Potency was inconclusive: 12.6 µM [activator, partial curve].

Molecular target: Cytochrome P450 2C9 (Homo sapiens) (UniProt P11712)
Assay: qHTS Assay for Inhibitors and Substrates of Cytochrome P450 2C9 (AID 883); further: nearly all actives have a fitted effect of over 60% in size; further: potency means the concentration at half of the fitted maximal effect; on activity change, negative = inhibition: on the % scale 0 is the no-effect control and ±100 the full control effect
Conditions: recombinant CYP2C9, luciferin-H luminescence, 60 min; activity change, negative = inhibition: at 57.1 µM (top of the series)
Procedure, shortened: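 Signal: luciferase luminescence reporting luciferin produced by CYP2C9. Conditions: 10nM enzyme, Luciferin-H 100uM at KM, 25mM KPO4, 37C, 60 min NADPH-driven reaction. Reference: 57uM sulphaphenazole as 100% inhibition.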
For `O=C(Nc1cccc(F)c1)N1CCCC2(CCN(C(=O)c3ccncc3)CC2)C1`, the Potency was active: 0.0794 µM. In the case of `O=C1CCC(c2ccccc2)(c2ccccc2)CC1`, the Potency is reported as inconclusive: 6.31 µM [inhibitor, single point]. With `COc1cccc(Cn2c(=O)c(-c3cccs3)nc3cnc(OCc4ccccc4)nc32)c1` the Potency was inconclusive: 0.631 µM [inhibitor, full curve]. For `O=C(C[N+]12CN3CN(CN(C3)C1)C2)c1ccc(-c2ccccc2)cc1`, the Potency was inconclusive: 3.16 µM [inhibitor, single point]. For `O=C(CSc1nc2ccccc2s1)c1sc2sc3ccccc3[n+]2c1O`, the Potency was inconclusive: 6.31 µM [inhibitor, single point]. For `O=c1c(-c2ccc(F)cc2)nc2cnc(N3CCOCC3)nc2n1C[C@H]1CCCO1`, the “activity change, negative = inhibition” value was inactive: 35.3%. In the case of `C/C(C[n+]1ccccc1)=N\N=C(N)N`, the activity change, negative = inhibition is reported as inactive: 34% [at 11.4 µM]. With `O=C1CCC(c2ccccc2)=NN1c1nc2ccccc2s1` the Potency was inconclusive: 3.98 µM [inhibitor, single point]. With `Nc1nc(SC/C=C\c2ccccc2)c2[nH]cnc2n1` the Potency was inconclusive: 3.98 µM [inhibitor, partial curve]. For `O=C1C(=O)c2ccccc2C(O)=C1C(C1=C(O)c2ccccc2C(=O)C1=O)c1ccc(Cl)cc1`, the Potency was inconclusive: 3.16 µM [inhibitor, single point]. With `N#CCCn1c(=O)c(-c2cccs2)nc2cnc(OCc3ccccc3)nc21` the Potency was inconclusive: 1.58 µM [inhibitor, full curve].

Molecular target: Cytochrome P450 3A4 (Homo sapiens) (UniProt P08684)
Assay: qHTS Assay for Inhibitors and Substrates of Cytochrome P450 3A4 (AID 884); further: nearly all actives have a fitted effect of over 50% in size; further: potency means the concentration at half of the fitted maximal effect; on activity change, negative = inhibition: on the % scale 0 is the no-effect control and ±100 the full control effect
Conditions: recombinant CYP3A4, Luciferin-PPXE luminescence; series mostly up to 57.1 µM; activity change, negative = inhibition: at the top concentration
Procedure, shortened: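 20 nM human CYP3A4 with 25 uM Luciferin-PPXE (at KM) in 200 mM KPO4, preincubated 10 min with compound; NADPH regeneration started a 60 min RT reaction. Luciferin detected by luminescence, normalized to 57 uM ketoconazole as full inhibition.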
For `CC(C)NC(=O)N1CC2(CCN(C(=O)c3ccncc3)CC2)C1`, the Potency was inconclusive: 0.0794 µM [inhibitor, full curve]. For `O=C(Nc1cccc(F)c1)N1CCCC2(CCN(C(=O)c3ccncc3)CC2)C1`, the Potency was active: 6.31 µM. For `N=C(N)SCc1cccc2c(=O)cc(-c3ccccc3)oc12`, the Potency was inconclusive: 3.16 µM [inhibitor, partial curve]. For `COc1cccc(Cn2c(=O)c(-c3cccs3)nc3cnc(OCc4ccccc4)nc32)c1`, the Potency was inconclusive: 7.94 µM [inhibitor, partial curve]. In the case of `Cn1ncc2c(NCCc3ccccc3)nc(Cl)nc21`, the Potency is reported as active: 2 µM. In the case of `COc1ccc(-c2nc3cnc(OC)nc3n(C3CC3)c2=O)cc1`, the Potency is reported as inconclusive: 0.0501 µM [inhibitor, full curve]. For `CC1=C/C(=N/O)C([C@H]2C=C(C)CC(C)(C)[C@@H]2O)C(C)(C)C1` (stereo not given in full), the Potency was inconclusive: 5.01 µM [inhibitor, partial curve]. In the case of `CC(C)NC(=O)N1CCC2(CC1)CCN(C(=O)c1cccc(F)c1)CC2`, the “activity change, negative = inhibition” value is reported as inactive: 61.8%. With `O=c1c2ccccc2sc2c(CO)ccc(NCCN3CCCCC3)c12` the Potency was inconclusive: 6.31 µM [inhibitor, single point]. For `Cc1[nH]c2c(C)ccc(C)c2c1CC(=O)O`, the Potency was inconclusive: 3.16 µM [inhibitor, partial curve].

Molecular target: Cytochrome P450 3A4 (Homo sapiens) (UniProt P08684)
Assay: qHTS Assay for Activators of Cytochrome P450 3A4 (AID 885); further: potency means the concentration at half of the fitted maximal effect; nearly all actives have a fitted effect of over 65% in size
Conditions: recombinant CYP3A4, Luciferin-PPXE luminescence, 60 min; series mostly up to 57.1 µM; activity change, positive = activation: at the top concentration
Procedure, shortened: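 20nM CYP3A4 + 25uM Luciferin-PPXE (=KM), 200mM KPO4; cpd 10 min RT; NADPH regen, 60 min RT; stop w/ detection buffer, 20 min; luminescence. Normalized to 57 uM ketoconazole.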
With `CC(=O)O[C@]1(C(C)=O)CC[C@@H]2[C@@H]3C=C(Cl)C4=CC(=O)[C@H]5C[C@@H]5[C@]4(C)[C@H]3CC[C@]21C` the Potency was active: 3.16 µM and active: 10 µM. With `Cc1noc(C)c1-c1cc(NC2CCNCC2)ncn1` the Potency was inconclusive: 0.0126 µM [activator, full curve, poor fit]. For `CN1[C@@H]2CC[C@H]1CC(NC(=O)c1nn(C)c3ccccc13)C2` (stereo not given in full), the Potency was inconclusive: 3.16 µM [activator, partial curve]. In the case of `C=CCN1CCc2c(cc(O)c(O)c2Cl)[C@H](c2ccccc2)C1`, the Potency is reported as inconclusive: 15.8 µM [activator, partial curve]. With `CC(C)NC(=O)N1CCC2(CC1)CCN(C(=O)c1cccc(F)c1)CC2` the Potency was active: 20 µM.
